Assay results: patent US6989362
Results are given in words; binding and its absence hold for the method and conditions named. Binding seen in cells or lysates may run through a third protein. Some entries that bind do so weakly or less than the wild type.

Sequences of proteins named here, by UniProt entry; tags and fusion partners are left off. Residues count along the entry.
UniProt P61809, residues 2-307: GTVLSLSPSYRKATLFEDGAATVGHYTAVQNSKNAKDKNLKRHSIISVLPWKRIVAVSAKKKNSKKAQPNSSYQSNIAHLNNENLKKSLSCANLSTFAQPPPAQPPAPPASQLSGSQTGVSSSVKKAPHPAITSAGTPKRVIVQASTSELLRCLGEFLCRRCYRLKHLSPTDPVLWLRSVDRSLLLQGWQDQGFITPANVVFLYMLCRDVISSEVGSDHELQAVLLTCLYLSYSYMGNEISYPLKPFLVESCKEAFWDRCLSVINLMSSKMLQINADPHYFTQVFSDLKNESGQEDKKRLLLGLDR

Target: Cdk5 immunoprecipitated from mouse striatal homogenate (mouse) (UniProt P49615)
Assay: co-immunoprecipitation from mouse striatal homogenate with immunoblotting

Q: How did the binding turn out when p35 (from UniProt P61809 2-307) was run?
A: Its binding is “binds”.
